Measured values published in paper doi:10.1101/2023.02.03.527076.
No constants are given. Whether binding was seen depends on the method and setting. Binding seen in cells or lysates may run through a third protein. Some results given as binding are weak or reduced against the parent protein; the word gives no strength. Tags and fused reporters may be left off the sequences shown.

The chains behind the UniProt entries cited, without tags or fusion partners.
UniProt Q9LK09: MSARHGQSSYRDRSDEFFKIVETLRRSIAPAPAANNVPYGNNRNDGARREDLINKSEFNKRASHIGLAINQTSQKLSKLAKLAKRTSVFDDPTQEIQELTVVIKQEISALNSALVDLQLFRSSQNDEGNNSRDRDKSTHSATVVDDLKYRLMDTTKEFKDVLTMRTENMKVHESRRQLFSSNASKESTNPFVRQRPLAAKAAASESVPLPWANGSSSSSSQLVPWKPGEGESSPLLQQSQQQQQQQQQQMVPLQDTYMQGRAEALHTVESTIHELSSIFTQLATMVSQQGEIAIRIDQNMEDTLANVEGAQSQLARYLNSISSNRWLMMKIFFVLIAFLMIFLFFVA
UniProt Q9CA75: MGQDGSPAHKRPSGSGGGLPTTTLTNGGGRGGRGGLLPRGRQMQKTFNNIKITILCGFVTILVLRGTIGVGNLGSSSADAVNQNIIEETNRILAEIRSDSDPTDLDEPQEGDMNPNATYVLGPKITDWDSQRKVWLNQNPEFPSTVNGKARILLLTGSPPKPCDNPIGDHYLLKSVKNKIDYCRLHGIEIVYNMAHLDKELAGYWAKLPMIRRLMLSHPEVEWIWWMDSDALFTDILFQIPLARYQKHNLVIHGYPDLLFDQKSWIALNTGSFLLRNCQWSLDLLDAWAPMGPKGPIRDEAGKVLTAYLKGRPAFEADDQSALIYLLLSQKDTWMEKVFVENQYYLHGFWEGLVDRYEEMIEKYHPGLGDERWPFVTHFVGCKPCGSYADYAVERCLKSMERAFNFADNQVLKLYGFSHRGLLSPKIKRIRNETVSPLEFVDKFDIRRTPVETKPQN
UniProt Q94CG2: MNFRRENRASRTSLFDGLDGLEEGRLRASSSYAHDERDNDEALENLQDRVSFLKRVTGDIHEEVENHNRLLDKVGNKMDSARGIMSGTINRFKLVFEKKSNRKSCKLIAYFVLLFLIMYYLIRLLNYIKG

B1: LUC^C-SEC31B (protein, UniProt Q8L611 1-1104)
chain: MACIKGVGRSASVALAPDAPYMAAGTMAGAVDLSFSSSANLEIFKLDFQSDDRDLPLVGEIPSSERFNRLAWGRNGSGSEEFALGLIAGGLVDGNIDLWNPLSLIGSQPSENALVGHLSVHKGPVRGLEFNAISSNLLASGADDGEICIWDLLKPSEPSHFPLLKGSGSATQGEISFISWNRKVQQILASTSYNGTTVIWDLRKQKPIINFADSVRRRCSVLQWNPNVTTQIMVASDDDSSPTLKLWDMRNIMSPVREFTGHQRGVIAMEWCPSDSSYLLTCAKDNRTICWDTNTAEIVAELPAGNNWNFDVHWYPKIPGVISASSFDGKIGIYNIEGCSRYGVEENNFGTAPLKAPKWYKRPVGASFGFGGKLVSCHARAPAKGTSSILSEVFLHSLVTEQSLVSRTSEFEAAIENGDMTSLRGLCEKKSEETESEEEKETWGLLKIMFEEEGTSRTKLISHLGFTLPVAEKDQAVDGLSSDLNGIRLEDTAADALDLDDSNEAAAFAMDNGEDFFNNFPAKPDTPVSTSAKDFMPSDTDFSTKGEETQEMQEEEEESSDPVFDNAIQRALIVGDYKEAVDQCITANKMADALVIAHVGGTALWESTREKYLKTSSAPYMKVVSAMVNNDLRSLIYTRSHKFWKETLALLCTFAQGEQWTTLCDALASKLMAAGNTLAAVLCYICAGNVDRTVEIWSRSLANERDGRSYAELLQDLMEKTLVLALATGNKKFSASLCKLFESYAEILASQGLLTTAMKYLKVLDSGGLSPELSILRDRISLSAEPETNTTASGNTQPQSTMPYNQEPTQAQPNVLANPYDNQYQQPYTDSYYVPQVSHPPMQQPTMFMPHQAQPAPQPSFTPAPTSNAQPSMRTTFVPSTPPALKNADQYQQPTMSSHSFTGPSNNAYPVPPGPGQYAPSGPSQLGQYPNPKMPQVVAPAAGPIGFTPMATPGVAPRSVQPASPPTQQAAAQAAPAPATPPPTVQTADTSNVPAHQKPVIATLTRLFNETSEALGGARANTTKKREIEDNSRKLGALFVKLNSGDISKNAADKLAQLCQALDNNDFSTALQIQVLLTTSEWDECNFWLATLKRMMVKARQNVR
B2: SEC31B (BiFC fusion) (protein, UniProt Q8L611 1-1104)
chain: MACIKGVGRSASVALAPDAPYMAAGTMAGAVDLSFSSSANLEIFKLDFQSDDRDLPLVGEIPSSERFNRLAWGRNGSGSEEFALGLIAGGLVDGNIDLWNPLSLIGSQPSENALVGHLSVHKGPVRGLEFNAISSNLLASGADDGEICIWDLLKPSEPSHFPLLKGSGSATQGEISFISWNRKVQQILASTSYNGTTVIWDLRKQKPIINFADSVRRRCSVLQWNPNVTTQIMVASDDDSSPTLKLWDMRNIMSPVREFTGHQRGVIAMEWCPSDSSYLLTCAKDNRTICWDTNTAEIVAELPAGNNWNFDVHWYPKIPGVISASSFDGKIGIYNIEGCSRYGVEENNFGTAPLKAPKWYKRPVGASFGFGGKLVSCHARAPAKGTSSILSEVFLHSLVTEQSLVSRTSEFEAAIENGDMTSLRGLCEKKSEETESEEEKETWGLLKIMFEEEGTSRTKLISHLGFTLPVAEKDQAVDGLSSDLNGIRLEDTAADALDLDDSNEAAAFAMDNGEDFFNNFPAKPDTPVSTSAKDFMPSDTDFSTKGEETQEMQEEEEESSDPVFDNAIQRALIVGDYKEAVDQCITANKMADALVIAHVGGTALWESTREKYLKTSSAPYMKVVSAMVNNDLRSLIYTRSHKFWKETLALLCTFAQGEQWTTLCDALASKLMAAGNTLAAVLCYICAGNVDRTVEIWSRSLANERDGRSYAELLQDLMEKTLVLALATGNKKFSASLCKLFESYAEILASQGLLTTAMKYLKVLDSGGLSPELSILRDRISLSAEPETNTTASGNTQPQSTMPYNQEPTQAQPNVLANPYDNQYQQPYTDSYYVPQVSHPPMQQPTMFMPHQAQPAPQPSFTPAPTSNAQPSMRTTFVPSTPPALKNADQYQQPTMSSHSFTGPSNNAYPVPPGPGQYAPSGPSQLGQYPNPKMPQVVAPAAGPIGFTPMATPGVAPRSVQPASPPTQQAAAQAAPAPATPPPTVQTADTSNVPAHQKPVIATLTRLFNETSEALGGARANTTKKREIEDNSRKLGALFVKLNSGDISKNAADKLAQLCQALDNNDFSTALQIQVLLTTSEWDECNFWLATLKRMMVKARQNVR
B3: LUC^C-SEC22 (protein, UniProt Q94AU2 1-218)
chain: MVKMTLIARVTDGLPLAEGLDDGRDLPDSDMYKQQVKALFKNLSRGQNDASRMSVETGPYVFHYIIEGRVCYLTMCDRSYPKKLAFQYLEDLKNEFERVNGPNIETAARPYAFIKFDTFIQKTKKLYQDTRTQRNIAKLNDELYEVHQIMTRNVQEVLGVGEKLDQVSEMSSRLTSESRIYADKAKDLNRQALIRKWAPVAIVFGVVFLLFWVKNKLW
B4: SEC22 (BiFC fusion) (protein, UniProt Q94AU2 1-218)
chain: MVKMTLIARVTDGLPLAEGLDDGRDLPDSDMYKQQVKALFKNLSRGQNDASRMSVETGPYVFHYIIEGRVCYLTMCDRSYPKKLAFQYLEDLKNEFERVNGPNIETAARPYAFIKFDTFIQKTKKLYQDTRTQRNIAKLNDELYEVHQIMTRNVQEVLGVGEKLDQVSEMSSRLTSESRIYADKAKDLNRQALIRKWAPVAIVFGVVFLLFWVKNKLW
B5: UDP-glucose dehydrogenase2 (UGD2), SLCA fusion (enzyme, UniProt Q9LIA8 1-480)
chain: MVKICCIGAGYVGGPTMAVIALKCPDVEVAVVDISVPRINAWNSDTLPIYEPGLDDVVKQCRGKNLFFSTDVEKHVREADIVFVSVNTPTKTRGLGAGKAADLTYWESAARMIADVSVSDKIVVEKSTVPVKTAEAIEKILTHNSKGIKFQILSNPEFLAEGTAIKDLFNPDRVLIGGRETPEGFKAVQTLKNVYAHWVPEGQIITTNLWSAELSKLAANAFLAQRISSVNAMSALCEATGADVTQVSYAVGTDSRIGPKFLNSSVGFGGSCFQKDILNLVYICECNGLPEVAEYWKQVIKINDYQKSRFVNRVVSSMFNSVSNKKIAVLGFAFKKDTGDTRETPAIDVCKGLLEDKARLSIYDPQVTEDQIQRDLSMNKFDWDHPLHLQPMSPTTVKQVTVTWDAYEATKDAHGICIMTEWDEFKNLDFQKIFDNMQKPAFVFDGRNIMNLQKLREIGFIVYSIGKPLDDWLKDMPAVA

Assays:
[1] = biological target: AtSYP32 (BiFC fusion) (Arabidopsis thaliana) (UniProt Q9LK09); assay: split reporter
[2] = biological target: LUC^N-AtSYP32 (Arabidopsis thaliana) (UniProt Q9LK09); assay: split reporter

Molecule | binding [1] | binding [2]
XXT5 (BiFC fusion) (from UniProt Q9CA75 1-457) (enzyme) | binds | 
BET12 (BiFC fusion) (from UniProt Q94CG2 1-130) | binds | 
B1 |  | binds
B2 | binds | 
B3 |  | binds
B4 | binds | 
B5 |  | no binding
